Reference: doi:10.1101/325811
No constants are given. Whether binding was seen depends on the method and setting. Binding seen in cells or lysates may run through a third protein. These calls come from enrichment with a bait or labelling near it, and not all partners need be listed.

The chains behind the UniProt entries cited, without tags or fusion partners. Where a name states a change or a piece, a line headed by the entry shows the natural chain unless it says otherwise.
UniProt Q99525: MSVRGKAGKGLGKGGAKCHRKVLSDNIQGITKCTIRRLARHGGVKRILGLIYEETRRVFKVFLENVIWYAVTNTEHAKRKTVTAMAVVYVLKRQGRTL
UniProt P06748: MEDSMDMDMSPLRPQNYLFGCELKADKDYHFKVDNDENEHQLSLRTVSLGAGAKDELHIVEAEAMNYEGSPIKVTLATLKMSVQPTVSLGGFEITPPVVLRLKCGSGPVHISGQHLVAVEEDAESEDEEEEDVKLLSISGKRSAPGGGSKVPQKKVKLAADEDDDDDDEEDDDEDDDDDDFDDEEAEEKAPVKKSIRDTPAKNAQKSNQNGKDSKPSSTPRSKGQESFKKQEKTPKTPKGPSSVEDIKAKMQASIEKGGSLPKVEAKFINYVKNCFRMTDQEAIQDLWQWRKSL

Target: FLAG-tagged H4G (human) (UniProt Q99525)
Assay: affinity purification with mass spectrometry

For “NPM1 (nucleophosmin/B23) (from UniProt P06748 1-294)”, the binding was “binds”.
